According to the supplement of paper PMC10735217:
Counter-ions that a name gives are not always drawn. The list shows a part of the results. Repeats in this data set agree poorly, so a single value says little.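 Human kidney-derived cells stably carry a construct in which eight TEAD-binding elements drive luciferase, measured by luminescence in a drug-repurposing library screen. A hit is any compound whose signal exceeds the plate mean by more than five robust Z scores.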

System: HEK293A TEAD-LUC reporter
Assay: TEAD-luciferase reporter activity (YAP activation), robust Z score vs plate; higher = stronger YAP/TEAD activation
Conditions: 24 h

Compound	TEAD-luciferase reporter activity (compound concentration: 200 nM)	TEAD-luciferase reporter activity (compound concentration: 2 uM)	TEAD-luciferase reporter activity (compound concentration: 10 uM)
CCN(CC(=O)NC)C(=O)c1cc(OC)c(OC)c(OC)c1	inactive: -1.04	inactive: -0.964	inactive: 0.551
Nc1ccc(S(=O)(=O)c2ccc(NCC(=O)O)cc2)cc1	inactive: -0.076	inactive: 0.547	inactive: 0.353
CC(C)COC(=O)[C@H](Cc1ccccc1)NP(=O)(COCCn1cnc2c(NC3CC3)nc(N)nc21)N[C@@H](Cc1ccccc1)C(=O)OCC(C)C	inactive: -1.61	inactive: -2.07	inactive: -0.418
COc1ccc2c(c1)CN(C(=O)CCN1CCC(Cc3ccccc3)CC1)CCS2	inactive: 0.0235	inactive: -1.02	inactive: 1.37
COC(=O)C1=C(C)NC(C)=C(C(=O)OCCN2CCN(c3ccc(Cl)c(Cl)c3)CC2)C1c1cccc([N+](=O)[O-])c1 (stereo not drawn)	inactive: -0.833	inactive: 2.4	inactive: 0.607
CCC(C)CCCCC(=O)N[C@@H](CCN)C(=O)N[C@H](C(=O)N[C@@H](CCN)C(=O)N[C@H]1CCNC(=O)[C@H]([C@@H](C)O)NC(=O)[C@H](CCN)NC(=O)[C@H](CCN)NC(=O)[C@H](CC(C)C)NC(=O)[C@@H](Cc2ccccc2)NC(=O)[C@@H](CCN)NC1=O)[C@@H](C)O (stereo partly drawn)	inactive: -0.646	inactive: -1.35	inactive: -0.788
CC(C)C[C@@H](C(=O)Nc1ccn(C[C@H](O)CO)n1)N1CC(Oc2ccccc2Cl)=CC1=O	inactive: 1.01	inactive: -0.88	inactive: 3.02
O=C(O)Cn1c(=O)n(Cc2ccc(Br)cc2F)c(=O)c2ccc(F)cc21	inactive: -0.572	inactive: 3.41	inactive: -0.104
CC(=O)OCC1=C(C(=O)O)N2C(=O)[C@@H](NC(=O)CC#N)[C@H]2SC1	inactive: 0.498	inactive: -1.03	inactive: 2.93
CC1=C(C#N)C(c2cccc3ncc(-c4ccccc4)cc23)C(C(=O)OCCC#N)=C(C)N1 (stereo not drawn)	inactive: 1.87	inactive: -1.82	inactive: 1.29
COc1cccc(CNCC(O)COc2ccc3[nH]c(=O)ccc3c2)c1 (stereo not drawn)	inactive: -1.03	inactive: 0.213	inactive: -1.07
COc1cc2c(cc1OC)[C@H](CCN1CCN(c3ccccc3)CC1)[C@H](C)N2	inactive: 0.506	inactive: 0.124	inactive: 4.76
Oc1nccc2cc(OC3CCNCC3)ccc12	inactive: 0.838	inactive: 1.21	inactive: 0.193
Cc1oncc1C(=O)Nc1ccc(C(F)(F)F)cc1 [leflunomide]	inactive: -1.25	inactive: -0.211	inactive: 0.875
Cc1ccc2c([nH]c(=O)c3c(=O)cc(C(=O)OCCC(C)C)oc32)c1C [repirinast]	inactive: -0.315	inactive: 0.0144	inactive: 0.608
CC(=O)N1Cc2ccccc2CC12CCCN(C(=O)c1ccccc1)C2 (stereo not drawn)	inactive: 2.53	–	inactive: 0.983
Cc1cc(Nc2ncnc3ccc(-c4ccc(CNCCS(C)(=O)=O)o4)cc23)ccc1Oc1ccn2ncnc2c1 [analog of ARRY-380]	inactive: -1.46	inactive: -0.512	inactive: 0.848
CCCc1c(OCCCOc2ccc3c(c2)OC(C(=O)O)CC3)ccc(C(C)=O)c1OC (stereo not drawn)	inactive: 0.224	inactive: -0.11	inactive: -1.22
COC(=O)C(C)c1ccc(-c2ccsc2)cc1 (stereo not drawn)	inactive: -0.864	inactive: -0.688	inactive: -0.401
COc1cc2c(cc1OC)[C@@H](Cc1cc(OC)c(OC)c(OC)c1)[N+](C)(CCCOC(=O)CC/C=C/CCC(=O)OCCC[N+]1(C)CCc3cc(OC)c(OC)cc3[C@H]1Cc1cc(OC)c(OC)c(OC)c1)CC2 (stereo partly drawn) [Mivacurium chloride]	inactive: -0.436	inactive: -0.864	inactive: 1.79
CNC(C)CCC=C(C)C (stereo not drawn) [Isometheptene hydrochloride]	inactive: 0.062	inactive: -0.794	inactive: -0.0743
CN(C)C/C=C/C(=O)Nc1cc2c(Nc3ccc(F)c(Cl)c3)ncnc2cc1O[C@H]1CCOC1 [Afatinib]	–	inactive: -1.01	–
CN(C)C/C=C/C(=O)Nc1cc2c(Nc3ccc(F)c(Cl)c3)ncnc2cc1O[C@H]1CCOC1 [Afatinib (BIBW2992)]	inactive: 0.367	–	inactive: 0.0624
Cn1cc(-c2ccc(F)c(C(F)(F)F)c2)nc1C1CCN(c2ncnc3[nH]ncc23)CC1	inactive: -1.05	inactive: -1.41	inactive: -1.71
CCCCCN(CCC12CC3CC(CC(C3)C1)C2)C(=O)NCCCc1ccncc1	inactive: -1.03	inactive: -1.92	inactive: 1.19
Fc1ccc(-c2c[n+](CCc3ccccc3)c3n2CCC3)cc1	inactive: -1.12	inactive: -0.562	inactive: 2.69
CC(CCC(=O)NCCS(=O)(=O)O)[C@H]1CC[C@H]2[C@@H]3CC[C@@H]4C[C@H](O)CC[C@]4(C)[C@H]3C[C@H](O)[C@]12C (stereo partly drawn) [Taurodeoxycholic acid sodium salt hydrate]	inactive: 0.218	–	inactive: 0.105

Part of the list above, as comma-separated lines.
Compound,TEAD-luciferase reporter activity (compound concentration: 200 nM),TEAD-luciferase reporter activity (compound concentration: 2 uM),TEAD-luciferase reporter activity (compound concentration: 10 uM)
COc1ccc2c(c1)CN(C(=O)CCN1CCC(Cc3ccccc3)CC1)CCS2,inactive: 0.0235,inactive: -1.02,inactive: 1.37
COC(=O)C1=C(C)NC(C)=C(C(=O)OCCN2CCN(c3ccc(Cl)c(Cl)c3)CC2)C1c1cccc([N+](=O)[O-])c1 (stereo not drawn),inactive: -0.833,inactive: 2.4,inactive: 0.607
CCC(C)CCCCC(=O)N[C@@H](CCN)C(=O)N[C@H](C(=O)N[C@@H](CCN)C(=O)N[C@H]1CCNC(=O)[C@H]([C@@H](C)O)NC(=O)[C@H](CCN)NC(=O)[C@H](CCN)NC(=O)[C@H](CC(C)C)NC(=O)[C@@H](Cc2ccccc2)NC(=O)[C@@H](CCN)NC1=O)[C@@H](C)O (stereo partly drawn),inactive: -0.646,inactive: -1.35,inactive: -0.788

The list continues.

Compound	TEAD-luciferase reporter activity (compound concentration: 200 nM)	TEAD-luciferase reporter activity (compound concentration: 2 uM)	TEAD-luciferase reporter activity (compound concentration: 10 uM)
Cc1cc(F)ccc1[C@H]1C[C@@H](N2CCN3C(=O)CC[C@H]3C2)CCN1C(=O)N(C)[C@H](C)c1cc(C(F)(F)F)cc(C(F)(F)F)c1 [orvepitant]	inactive: -1.2	inactive: -1.23	inactive: 2.02
COCCN1CCN(CC2CCN(c3ccc(Cl)cc3)C2=O)CC1 (stereo not drawn)	inactive: -0.519	inactive: 2.88	inactive: 4.59
Cc1nnc(SCC2=C(C(=O)O)N3C(=O)[C@@H](NC(=O)C(N)c4ccc(O)cc4)[C@H]3SC2)s1 (stereo partly drawn)	inactive: -0.0458	inactive: 2.68	inactive: 0.0551
CCN(CC)CCCc1c(C)[nH]c(CCSCc2csc(NC(=N)N)n2)nc1=O	inactive: -1.23	inactive: 0.0577	inactive: 0.164
Nc1nccc2c1nnn2Cc1c(F)cccc1F	inactive: -0.666	inactive: 3.48	inactive: 0.912
CC(C)(C)C(O)(COc1ccc(Cl)cc1)Cn1cncn1 (stereo not drawn) [vibunazole]	inactive: -1.56	inactive: -1.38	inactive: 4.38
CNCC(=O)OCc1cccnc1N(C)C(=O)OC(C)[n+]1cnn(C[C@](O)(c2cc(F)ccc2F)[C@@H](C)c2nc(-c3ccc(C#N)cc3)cs2)c1 (stereo partly drawn)	inactive: -0.202	inactive: 0.842	inactive: -0.427
Cc1c(CC(C)(C)C(=O)O)n(Cc2ccc(Cl)cc2)c2ccc(F)cc12	inactive: -1.47	inactive: -0.216	inactive: 1.81
O=C(O)C(CCN1CCOCC1)(c1ccccc1)c1ccccc1	inactive: 0.00424	inactive: 1.31	inactive: -2.04
COc1cccc(-c2ccc(CN3CCCC(NC(=O)c4cccc(Cl)c4)C3)cc2)c1 (stereo not drawn)	inactive: -0.88	–	inactive: -1.02
C=CCCCCCCCCCSC(N)=[NH2+]	inactive: -0.374	inactive: -1.53	inactive: 0.482
Cc1c(CCO)sc[n+]1CCCCCCCCCCCC[n+]1csc(CCO)c1C [Albitiazolium bromide]	inactive: -1.44	inactive: -1.29	inactive: 1.7
CC1=C(/C=C/C(C)=C/C=C/c2ccc(C(=O)O)cc2)C(C)(C)CCC1 [Pelretin]	inactive: 4.8	inactive: -0.19	inactive: 1.39
O=C1Nc2cc(Cl)ccc2N(C(=O)CN(CCO)CCO)c2ccccc21 [Siltenzepine]	inactive: -0.0456	inactive: -1.41	inactive: -1.01
C[C@H](CCC(=O)O)[C@H]1CC[C@H]2[C@@H]3[C@@H](O)C[C@@H]4C[C@H](O)CC[C@]4(C)[C@H]3CC[C@]12C	inactive: -1.19	inactive: -1.32	inactive: 0.61
Cc1cc(C(=O)O)nn1Cc1cc(Br)ccc1OCc1ccc(Cl)cc1Cl	inactive: -1.57	inactive: 0.0373	inactive: 0.926
CC(=O)N[C@@H](C=O)[C@@H](O)[C@H](O)[C@H](O)CO	inactive: -0.267	inactive: -1.44	inactive: -0.693
CN1CCC(C(=O)N2CCCC3(Cc4ccccc4CN3C(=O)c3ccccc3)C2)CC1 (stereo not drawn)	inactive: -0.677	–	inactive: -0.749
NC[C@@H]1CC[C@H]1CN	–	inactive: -0.313	–
NC[C@@H]1CC[C@H]1CN [Lobaplatin]	inactive: -1.69	–	inactive: -1.72
Cc1cccc(N(C)C(=S)Oc2ccc3ccccc3c2)c1	inactive: 0.478	–	inactive: -0.666
Cc1cccc(N(C)C(=S)Oc2ccc3ccccc3c2)c1 [Tolnaftate]	–	inactive: 2.86	–
CCOC(=O)c1cc(O)nc(O)n1	inactive: -0.928	inactive: -1.7	inactive: -0.488
COc1cc(NC(C)CCCN)c2ncccc2c1 (stereo not drawn) [primaquine, Liposome Co]	–	inactive: -2.47	–
COc1cc(NC(C)CCCN)c2ncccc2c1 (stereo not drawn) [Primaquine Diphosphate63-45-6]	inactive: -3.38	–	inactive: 0.268
COC1=CC(=O)c2c(O)c3c(c(C)c2C1=O)C[C@@]1(O)[C@H](O[C@H]2CC[C@H](O[C@H]4C[C@@](C)(O)[C@H](OC(=O)c5c(C)ccc(C)c5O)[C@H](C)O4)[C@@H](C)O2)C(=O)/C(=C(/C)O)C(=O)[C@@]1(O)C3=O [Polyketomycin]	inactive: 0.239	inactive: -0.764	inactive: -0.356
